No constants are given. Whether binding was seen depends on the method and setting.

The experiment deals with HLA-B*0702 (human). Kind of experiment: condition: RA > 10 (peptide tested from 100 µM to 0.1 µM); T2-B7 cells incubated 16 h with peptide, HLA-B*0702 surface expression stained with ME-1 mAb; relative affinity against reference peptide CMV265-274 (R10V).
As to GPRALIETS [MAGE-A I], the binding entry is “no binding”.

In the case of GPRALVETS [MAGE-A V], the binding entry is listed as “no binding”.

Turning to GPRALAETS [MAGE-A A], the binding result is “no binding”.
